The values that follow are results of earlier work, collected in patent US11414689B2, “Hydrolysis of steviol glycosides by beta-glucosidase” (Conagen Inc., priority 2017, dated 2022).

For this data set the following is noted: as noted in taste tests; cited from earlier work.
On to `C=C1C[C@@]23CC[C@H]4[C@@](C)(CCC[C@@]4(C)C(=O)O[C@@H]4O[C@H](CO)[C@@H](O)[C@H](O)[C@H]4O)[C@@H]2CC[C@]1(O[C@@H]1O[C@H](CO)[C@@H](O)[C@H](O[C@@H]2O[C@H](CO)[C@@H](O)[C@H](O)[C@H]2O)[C@H]1O[C@@H]1O[C@H](CO)[C@@H](O)[C@H](O)[C@H]1O)C3` [Reb A, rebaudioside A], for which the after-taste entry was “much better than stevioside”.
Turning to `C=C1C[C@@]23CC[C@H]4[C@@](C)(CCC[C@@]4(C)C(=O)O[C@@H]4O[C@H](CO)[C@@H](O)[C@H](O)[C@H]4O[C@@H]4O[C@H](CO)[C@@H](O)[C@H](O)[C@H]4O)[C@@H]2CC[C@]1(O[C@@H]1O[C@H](CO)[C@@H](O)[C@H](O)[C@H]1O[C@@H]1O[C@H](CO)[C@@H](O)[C@H](O)[C@H]1O)C3` [Reb E, rebaudioside E], the after-taste result was “much better than stevioside”.
For the molecule `C=C1C[C@@]23CC[C@H]4[C@@](C)(CCC[C@@]4(C)C(=O)O[C@@H]4O[C@H](CO)[C@@H](O)[C@H](O)[C@H]4O)[C@@H]2CC[C@]1(O[C@@H]1O[C@H](CO)[C@@H](O)[C@H](O)[C@H]1O[C@@H]1O[C@H](CO)[C@@H](O)[C@H](O)[C@H]1O)C3` [Stevioside, stevioside], the after-taste result is recorded as “bitter after-taste”.
